Here are results for 25 compounds from PubChem BioAssay AID248 (DTP/NCI, 2004).

This assay concerns L1210 leukemia ip in BDF1 mice, survival T/C. The assay can be described thus: NCI In Vivo Anticancer Drug Screen. Data for tumor model L1210 Leukemia (intraperitoneal) in B6D2F1 (BDF1) mice. To be noted: T/C endpoint: mean survival time, higher T/C = longer survival.
Setting [1] is: dose: 25.0 mg/kg/injection, schedule: Q01DX009 (ip), vehicle: saline.
Setting [2] is: dose: 50.0 mg/kg/injection, schedule: Q01DX009 (ip), vehicle: saline.
Setting [3] is: dose: 100.0 mg/kg/injection, schedule: Q01DX009 (ip), vehicle: saline.
Setting [4] is: dose: 100.0 mg/kg/injection, schedule: Q04DX003 (ip), vehicle: saline.
[5] abbreviates: dose: 200.0 mg/kg/injection, schedule: Q04DX003 (ip), vehicle: saline.
The mark [6] stands for this setting: dose: 200.0 mg/kg/injection, schedule: Q01DX009 (ip), vehicle: saline.
Where [7] appears, read: dose: 400.0 mg/kg/injection, schedule: Q04DX002 (ip), vehicle: saline with Tween-80.
Where [8] appears, read: dose: 400.0 mg/kg/injection, schedule: Q01DX001 (ip), vehicle: saline.
Setting [9] is: dose: 200.0 mg/kg/injection, schedule: Q04DX002 (ip), vehicle: saline.
Setting [10] is: dose: 400.0 mg/kg/injection, schedule: Q04DX002 (ip), vehicle: saline.

The list shows only some results of the screen, not a fair sample: it is rich in T/C values a quarter to a half above the control, in often repeated tests (any T/C) and in doses without a T/C. Other doses and runs of a compound stand elsewhere. T/C is the treated group as % of the vehicle group. Some entries give survivors of the animals treated and no T/C: the source files T/C as zero there, which appears to mark a toxic dose or a test without result, not a measured value. Some survivor counts are full or nearly so, which does not show that the dose was tolerated: the source hardly ever lists a survival T/C far under the control, and the zero likely stands for such cases as well. Counts of survivors are from the toxicity check (mostly the fifth day) where no day follows; animals may have died later. Schedule codes are those of the source, read here as Q, the interval in days (D) or hours (H), X, the number of doses. Some doses were run more than once; the values are given in rising order. Some schedules carry Z or #; the key to these is not given. Where survival is the endpoint, this PubChem deposit counts one and a half times the control or more as active, and values a quarter to a half above the control carry no call in these data; other NCI protocols may use other cut-offs. Some T/C values carry the count of animals alive at the toxicity check (mostly the fifth day); where none is given, no animal had died by that day.

Take `CC([NH-])C(=O)O.CC([NH-])C(=O)O.[Ni+2]` (stereo not drawn): the survivor count under setting [1] is recorded as 6 of 6; the survivor count under setting [2] was 1 of 6; the survivor count under setting [3] was 0 of 6; the survivor count under setting [4] was 1 of 6; the survivor count under setting [5] is 0 of 6; the survivor count (dose: 400.0 mg/kg/injection, schedule: Q04DX003 (ip), vehicle: saline) is 1 of 6.

In the case of `CCCC[As](=O)(O)CCCc1ccccc1`, the survivor count by setting is: (dose: 6.25 mg/kg/injection, schedule: Q01DX009 (ip), vehicle: saline) 0 of 3; (dose: 12.5 mg/kg/injection, schedule: Q01DX009 (ip), vehicle: saline) 0 of 3; under setting [1], 0 of 3; under setting [2], 0 of 3; under setting [3], 0 of 3; under setting [6], 0 of 3.

For `Nc1ncnc2c1c1c(N)[nH]nc1n2C1OC(CO)C(O)C1O` (stereo not drawn), the T/C under setting [3] is 149 % of control.

In the case of `Cc1cccc(NC(=O)c2c(Cl)c(Cl)c(Cl)c(Cl)c2C(=O)O)c1C`, the survivor count (dose: 400.0 mg/kg/injection, schedule: Q04DX002 (ip), vehicle: Klucel (hydroxypropylcellulose) (HPC)) is 3 of 3.

As to `CC1CCC2(OC1)OC1C(O)C3C4CCC5CC(OC6OC(CO)C(OC7OC(CO)C(O)C(OC8OCC(O)C(O)C8O)C7OC7OC(CO)C(O)C(OC8OC(CO)C(O)C(O)C8O)C7O)C(O)C6O)C(O)CC5(C)C4CCC3(C)C1C2C` (stereo not drawn), the survivor count runs as follows: (dose: 50.0 mg/kg/injection, schedule: Q01DX001 (ip), vehicle: saline with Tween-80) 1 of 3; (dose: 100.0 mg/kg/injection, schedule: Q01DX001 (ip), vehicle: saline with Tween-80) 0 of 3.

`N#C/C(=C\C1CCC(OCC2CCCCC2)CC1)C1CCC([N+](=O)[O-])CC1` (stereo not drawn): the survivor count was 1 of 3 (dose: 200.0 mg/kg/injection, schedule: Q04DX002 (ip), vehicle: saline with Tween-80) and 0 of 3 under setting [7].

For the compound `c1csc([Si](c2cccs2)(c2cccs2)c2cccs2)c1`, under setting [7], the survivor count is given as 3 of 3.

In the case of `CC1C2CCC(C2)C1C(=O)O` (stereo not drawn), the survivor count (dose: 200.0 mg/kg/injection, schedule: Q04DX003 (ip), vehicle: saline with Tween-80) is recorded as 6 of 6.

`CC(C)c1ccc(/C=N/NC(=O)c2ccncc2)cc1`: the survivor count is, setting by setting: under setting [6], 2 of 6; (dose: 400.0 mg/kg/injection, schedule: Q01DX009 (ip), vehicle: saline) 0 of 6.

Regarding `[B-][NH2+]C(C)(C)C`, the survivor count reads like this: (dose: 100.0 mg/kg/injection, schedule: Q01DX001 (ip), vehicle: saline) 0 of 4; (dose: 200.0 mg/kg/injection, schedule: Q01DX001 (ip), vehicle: saline) 0 of 4; under setting [8], 0 of 4.

With `CCOC(=O)C(C#N)c1ccccc1` (stereo not drawn), the survivor count under setting [8] was 4 of 4.

For `CCOC(=O)C(=O)NCc1cnccn1`, the survivor count (dose: 100.0 mg/kg/injection, schedule: Q01DX009 (ip), vehicle: water) was 3 of 6.

Regarding `CCc1ccccc1NC(=O)Sc1ccccc1O`, the survivor count (dose: 50.0 mg/kg/injection, schedule: Q01DX009 (ip), vehicle: saline with Tween-80) is 3 of 6; the survivor count (dose: 100.0 mg/kg/injection, schedule: Q01DX009 (ip), vehicle: saline with Tween-80) is 5 of 6 and 6 of 6; the survivor count (dose: 200.0 mg/kg/injection, schedule: Q01DX009 (ip), vehicle: saline with Tween-80) is reported as 4 of 6; the survivor count (dose: 400.0 mg/kg/injection, schedule: Q01DX009 (ip), vehicle: saline with Tween-80) is on record as 0 of 6.

On to `CN=C(c1ccc(NC(=O)c2ccc(C(=O)Nc3ccc(C(=NC)N4CCOCC4)cc3)cc2)cc1)N1CCOCC1`, for which the survivor count is on record as 1 of 6 (dose: 30.0 mg/kg/injection, schedule: Q01DX Z (ip), vehicle: carboxymethylcellulose (CMC)); 0 of 6 (dose: 60.0 mg/kg/injection, schedule: Q01DX Z (ip), vehicle: carboxymethylcellulose (CMC)); 0 of 6 (dose: 120.0 mg/kg/injection, schedule: Q01DX Z (ip), vehicle: carboxymethylcellulose (CMC)).

In the case of `O=NN(CCCl)C(=O)Nc1ccccc1C(=O)O`, for the setting “dose: 12.0 mg/kg/injection, schedule: Q01DX001 (ip), vehicle: carboxymethylcellulose (CMC)”, the T/C was 147 % of control.

With `[N-]=[N+]=CC(=O)NCC(=O)NO`, the T/C (dose: 130.0 mg/kg/injection, schedule: Q01DX008 (ip), vehicle: water) was 135 % of control; the T/C (dose: 180.0 mg/kg/injection, schedule: Q01DX009 (ip), vehicle: water) was 136 % of control; the T/C (dose: 200.0 mg/kg/injection, schedule: Q01DX008 (ip), vehicle: water) was 133 % of control; the T/C (dose: 300.0 mg/kg/injection, schedule: Q01DX008 (ip), vehicle: water) is 139 % of control; the T/C (dose: 400.0 mg/kg/injection, schedule: Q01DX009 (ip), vehicle: water) is 146 % of control; the T/C (dose: 450.0 mg/kg/injection, schedule: Q01DX009 (ip), vehicle: other) was 130 % of control [5 of 6 alive]. The T/C was 128 % of control (dose: 600.0 mg/kg/injection, schedule: Q01DX001 (ip), vehicle: water); 126 % of control (dose: 800.0 mg/kg/injection, schedule: Q01DX001 (ip), vehicle: water); 142 % of control (dose: 1200.0 mg/kg/injection, schedule: Q01DX001 (ip), vehicle: water). Further, the survivor count by setting is: (dose: 600.0 mg/kg/injection, schedule: Q01DX009 (ip), vehicle: water) 5 of 6; (dose: 2000.0 mg/kg/injection, schedule: Q01DX001 (ip), vehicle: water) 3 of 6.

As for `CCC(CO)(CO)C(=[N-])c1ccccc1O.CCC(CO)(CO)N=Cc1ccccc1O.[Co]`, the survivor count under setting [8] is given as 0 of 6.

Take `N=C(N)SCc1ccc(Br)cc1`: the survivor count under setting [8] is on record as 1 of 6.

As to `CC1C=CCC(C)(C)C1` (stereo not drawn), the survivor count is 5 of 6 (dose: 800.0 mg/kg/injection, schedule: Q01DX009 (ip), vehicle: carboxymethylcellulose (CMC)) and 5 of 6 (dose: 1000.0 mg/kg/injection, schedule: Q01DX009 (ip), vehicle: carboxymethylcellulose (CMC)).

On to `O=C1c2ccccc2-c2ccccc2C1(Cl)Cl`, for which the survivor count is listed as 3 of 6 (dose: 150.0 mg/kg/injection, schedule: Q01DX001 (ip), vehicle: saline) and 0 of 6 (dose: 300.0 mg/kg/injection, schedule: Q01DX001 (ip), vehicle: saline).

As to `CCCCCCC(CCCCCC)c1ccccc1`, the survivor count (dose: 400.0 mg/kg/injection, schedule: Q01DX001 (ip), vehicle: saline with Tween-80) is reported as 6 of 6.

Turning to `C#CCOS(C)(=O)=O`, the survivor count is 3 of 3 (dose: 40.0 mg/kg/injection, schedule: Q01DX009 (ip), vehicle: saline); 1 of 3 (dose: 100.0 mg/kg/injection, schedule: Q04DX002 (ip), vehicle: saline); 0 of 3 under setting [9]; 0 of 3 under setting [10].

On to `c1cc2c(c(OCC3=NCCN3)c1)CCCC2`, for which the survivor count under setting [9] was 0 of 3 and the survivor count under setting [10] is given as 0 of 3.

Consider `CCCCCCCCN`, for which the survivor count by setting is: under setting [2], 2 of 6; under setting [3], 1 of 3; under setting [4], 1 of 6; under setting [9], 0 of 3 and 1 of 6; under setting [10], 0 of 3 and 0 of 6. The T/C was 94 % of control (dose: 100.0 mg/kg/injection, schedule: Q04DX002 (ip), vehicle: saline, evaluated on day 20) and 91 [5 of 6 alive], 96, 107 % of control (dose: 100.0 mg/kg/injection, schedule: Q04DX002 (ip), vehicle: saline, evaluated on day 30).

`CNC1(c2ccccc2)C(=O)CC2CCC1C2` (stereo not drawn): the survivor count by setting is: under setting [5], 1 of 6; under setting [8], 0 of 6.
